Measurements reported in PubChem BioAssay AID1224828 (NIAID, 2016)
Shown is a random part of about 17,000 deposited reagents. 762 of all reagents (4.5%) count as active. 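Active calls include both raised and lowered p65 entry, mostly lowered; wells with fewer than 50 cells lack a z-score.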 Raw values are not corrected between plates. The numbers tell different reagents against one gene apart.

- Aim: 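Regulators linking TLR4 signalling to p65 nuclear translocation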 (primary screen)
- Cells: mouse RAW264.7 G9 macrophage reporter cells (GFP-p65, Tnf promoter-mCherry)
- Reagents: siRNA pool against mouse genes, 100 nM
- Time to read-out: 2 days siRNA transfection, then 40 min LPS before fixation
- Treatment: LPS (Salmonella minnesota R595) at 10 ng/ml
- Read-out: 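Microscopy ratio of nuclear to perinuclear-ring GFP-p65 signal, scaled to the plate median; gene score is the average of two replicate robust z-scores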
- Reading the numbers: p65 translocation robust z-score: higher = more nuclear NF-kappaB p65 after LPS than the plate median; nuclear/cytoplasmic p65 ratio: higher = more nuclear NF-kappaB p65
- Hit rule: 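Active if robust z is above 3.3 (negative regulators) or below -1.56, the Tlr4 control median (positive regulators); activity score 50 or more; control wells not called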
- Meaning of the calls: active = hit (p65 shift raised or lowered); inactive = no clear change

Target gene	pool no.	p65 translocation robust z-score	nuclear/cytoplasmic p65 ratio, rep 1	nuclear/cytoplasmic p65 ratio, rep 2	low cell count flag	Call
Ass1 (argininosuccinate synthetase 1)	1	-0.18	1.58	1.59	enough cells to score	inactive
Snx31 (sorting nexin 31)	1	0.15	1.39	1.19	enough cells to score	inactive
Cebpe (CCAAT/enhancer binding protein epsilon)	1	0.54	1.59	1.4	enough cells to score	inactive
Polr2h (polymerase (RNA) II (DNA directed) polypeptide H)	1	-0.36	1.25	1.25	enough cells to score	inactive
Irebf1 (retired record)	1	-1.35	1.37	1.24	enough cells to score	inactive
Dtl (denticleless E3 ubiquitin protein ligase)	1	0.94	1.74	1.77	enough cells to score	inactive
Wnt2 (WNT family member 2)	1	-0.47	1.52	1.47	enough cells to score	inactive
Eif3a (eukaryotic translation initiation factor 3, subunit A)	1	0.32	1.63	1.4	enough cells to score	inactive
Unc93b1 (unc-93 homolog B1, TLR signaling regulator)	1		1.38	1.25	fewer than 50 cells per well; well left out of scoring	inactive
Sstr2 (somatostatin receptor 2)	1	-0.12	1.49	1.42	enough cells to score	inactive
Or5b3 (olfactory receptor family 5 subfamily B member 3)	1	2.63	2.06	1.72	enough cells to score	inactive
Kif18a (kinesin family member 18A)	1	1.32	1.68	1.53	enough cells to score	inactive
Ccer1 (coiled-coil glutamate-rich protein 1)	1		1.51	1.23	fewer than 50 cells per well; well left out of scoring	inactive
Ecsit (ECSIT signalling integrator)	1	0.21	1.4	1.31	enough cells to score	inactive
Pkn3 (protein kinase N3)	1	1.27	1.92	1.51	enough cells to score	inactive
Pdpr (pyruvate dehydrogenase phosphatase regulatory subunit)	1	1.4	1.85	1.8	enough cells to score	inactive
Mrps27 (mitochondrial ribosomal protein S27)	1	-0.41	1.74	1.51	enough cells to score	inactive
Trim21 (tripartite motif-containing 21)	1	0.21	1.63	1.45	enough cells to score	inactive
Mesp1 (mesoderm posterior 1)	1	-0.74	1.61	1.51	enough cells to score	inactive
Pou3f3 (POU domain, class 3, transcription factor 3)	1	0.48	1.59	1.45	enough cells to score	inactive
Cep19 (centrosomal protein 19)	1	0.49	1.37	1.55	enough cells to score	inactive
B3galt2	1	0.26	1.55	1.64	enough cells to score	inactive
Tshr (thyroid stimulating hormone receptor)	1	-0.57	1.39	1.55	enough cells to score	inactive
Pde4dip (phosphodiesterase 4D interacting protein (myomegalin))	1	-0.31	1.32	1.19	enough cells to score	inactive
Pde4dip (phosphodiesterase 4D interacting protein (myomegalin))	2	-0.2	1.35	1.57	enough cells to score	inactive
Pde4dip (phosphodiesterase 4D interacting protein (myomegalin))	3	-0.19	1.58	1.71	enough cells to score	inactive
Or8i2 (olfactory receptor family 8 subfamily I member 2)	1	-0.45	1.57	1.52	enough cells to score	inactive
Brd3 (bromodomain containing 3)	1	-0.64	1.56	1.47	enough cells to score	inactive
Dpf1 (double PHD fingers 1)	1	-0.92	1.65	1.44	enough cells to score	inactive
Slx9 (SLX9 ribosome biogenesis factor)	1	0.72	1.19	1.51	enough cells to score	inactive

Entries listed so far whose gene name starts with B or b (2):
Target gene	pool no.	p65 translocation robust z-score	nuclear/cytoplasmic p65 ratio, rep 1	nuclear/cytoplasmic p65 ratio, rep 2	low cell count flag	Call
B3galt2	1	0.26	1.55	1.64	enough cells to score	inactive
Brd3 (bromodomain containing 3)	1	-0.64	1.56	1.47	enough cells to score	inactive

Next reagents:
Target gene	pool no.	p65 translocation robust z-score	nuclear/cytoplasmic p65 ratio, rep 1	nuclear/cytoplasmic p65 ratio, rep 2	low cell count flag	Call
1700067P10Rik (RIKEN cDNA 1700067P10 gene)	1	-0.72	1.36	1.27	enough cells to score	inactive
U2surp (U2 snRNP-associated SURP domain containing)	1	-0.81	1.33	1.35	enough cells to score	inactive
Ccng1 (cyclin G1)	1	-1.11	1.29	1.24	enough cells to score	inactive
Cmtr2 (cap methyltransferase 2)	1	-0.54	1.46	1.79	enough cells to score	inactive
Epha7 (Eph receptor A7)	1	-0.17	1.67	1.36	enough cells to score	inactive
Tspan5 (tetraspanin 5)	1	1.38	1.54	1.42	enough cells to score	inactive
Cd274 (CD274 antigen)	1		1.23	1.12	fewer than 50 cells per well; well left out of scoring	inactive
Stk39 (serine/threonine kinase 39)	1	1.32	1.66	1.55	enough cells to score	inactive
Vmn2r26 (vomeronasal 2, receptor 26)	1		1.11	0.99	fewer than 50 cells per well; well left out of scoring	inactive
Gpr4 (G protein-coupled receptor 4)	1	-1.74	1.25	1.34	enough cells to score	active
Plekha2 (pleckstrin homology domain containing A2)	1		1.1	1.1	fewer than 50 cells per well; well left out of scoring	inactive
Mpi (mannose phosphate isomerase)	1	-0.03	1.46	1.32	enough cells to score	inactive
Slit1 (slit guidance ligand 1)	1	-1.14	1.36	1.35	enough cells to score	inactive
Tnc (tenascin C)	1	1.2	1.66	1.72	enough cells to score	inactive
Nkain4 (Na+/K+ transporting ATPase interacting 4)	1	-0.4	1.33	1.52	enough cells to score	inactive
Myo1h (myosin 1H)	1	-0.22	1.71	1.59	enough cells to score	inactive
Dnaaf9 (dynein axonemal assembly factor 9)	1	1.15	1.31	1.44	enough cells to score	inactive
Rnase2b	1	0.72	1.52	1.49	enough cells to score	inactive
Or1x2 (olfactory receptor family 1 subfamily X member 2)	1	1.03	1.58	1.39	enough cells to score	inactive
Spsb3 (splA/ryanodine receptor domain and SOCS box containing 3)	1		1.09	0.892	fewer than 50 cells per well; well left out of scoring	inactive
Fgf12 (fibroblast growth factor 12)	1	0.19	1.4	1.46	enough cells to score	inactive
Tnnt2 (troponin T2, cardiac)	1	-0.35	1.45	1.49	enough cells to score	inactive
Tnnc2 (troponin C2, fast)	1	-0.68	1.49	1.36	enough cells to score	inactive
Or2t48 (olfactory receptor family 2 subfamily T member 48)	1	-0.36	1.59	1.38	enough cells to score	inactive
H4c8 (H4 clustered histone 8)	1	-0.06	1.47	1.49	enough cells to score	inactive
Fcna (ficolin A)	1	-0.87	1.41	1.2	enough cells to score	inactive
Tceal5 (transcription elongation factor A (SII)-like 5)	1	0.7	1.45	1.56	enough cells to score	inactive
Repin1 (replication initiator 1)	1		1.33	1.22	fewer than 50 cells per well; well left out of scoring	inactive
Klf16 (Kruppel-like transcription factor 16)	1	-1.96	1.14	1.13	enough cells to score	active
Ebf2 (early B cell factor 2)	1		1.4	1.26	fewer than 50 cells per well; well left out of scoring	inactive
Sh3gl1 (SH3-domain GRB2-like 1)	1	0.45	1.7	1.54	enough cells to score	inactive
Spaca1 (sperm acrosome associated 1)	1		1.4	1.58	fewer than 50 cells per well; well left out of scoring	inactive
Gid4 (GID complex subunit 4, VID24 homolog)	1		1.46	1.39	fewer than 50 cells per well; well left out of scoring	inactive
Slc43a1	1	0.26	1.55	1.56	enough cells to score	inactive
Hdac2 (histone deacetylase 2)	1	-0.56	1.33	1.32	enough cells to score	inactive
Mrps18b (mitochondrial ribosomal protein S18B)	1	-1.16	1.61	1.4	enough cells to score	inactive
Nhlrc1 (NHL repeat containing 1)	1	0.08	1.72	1.67	enough cells to score	inactive
Cd96 (CD96 antigen)	1	0.2	1.39	1.47	enough cells to score	inactive
Tex16 (testis expressed gene 16)	1	-0.86	1.26	1.09	enough cells to score	inactive
Cdo1 (cysteine dioxygenase 1, cytosolic)	1	-0.41	1.54	1.71	enough cells to score	inactive
Tbr1 (T-box brain transcription factor 1)	1	0.99	1.65	1.66	enough cells to score	inactive
Sbsn (suprabasin)	1	-0.94	1.22	1.11	enough cells to score	inactive
Nlrp10 (NLR family, pyrin domain containing 10)	1	-0.49	1.36	1.29	enough cells to score	inactive
Taco1	1		1.53	1.45	fewer than 50 cells per well; well left out of scoring	inactive
D630039A03Rik (RIKEN cDNA D630039A03 gene)	1	-1.8	1.22	1.38	enough cells to score	active
